Laboratory results as given in PMC5807400.
No constants are given. Whether binding was seen depends on the method and setting. In cells and extracts the contact can be indirect. A yes stands for co-enrichment or nearness to the bait. Other partners may have been found. For some assays here: Sequences can lack the tags named with a protein. Each block holds one molecule with its values, some of them ahead of it.

By UniProt entry, the sequences of proteins in these tests, tags left out. Residues count along the entry.
UniProt Q658Y4: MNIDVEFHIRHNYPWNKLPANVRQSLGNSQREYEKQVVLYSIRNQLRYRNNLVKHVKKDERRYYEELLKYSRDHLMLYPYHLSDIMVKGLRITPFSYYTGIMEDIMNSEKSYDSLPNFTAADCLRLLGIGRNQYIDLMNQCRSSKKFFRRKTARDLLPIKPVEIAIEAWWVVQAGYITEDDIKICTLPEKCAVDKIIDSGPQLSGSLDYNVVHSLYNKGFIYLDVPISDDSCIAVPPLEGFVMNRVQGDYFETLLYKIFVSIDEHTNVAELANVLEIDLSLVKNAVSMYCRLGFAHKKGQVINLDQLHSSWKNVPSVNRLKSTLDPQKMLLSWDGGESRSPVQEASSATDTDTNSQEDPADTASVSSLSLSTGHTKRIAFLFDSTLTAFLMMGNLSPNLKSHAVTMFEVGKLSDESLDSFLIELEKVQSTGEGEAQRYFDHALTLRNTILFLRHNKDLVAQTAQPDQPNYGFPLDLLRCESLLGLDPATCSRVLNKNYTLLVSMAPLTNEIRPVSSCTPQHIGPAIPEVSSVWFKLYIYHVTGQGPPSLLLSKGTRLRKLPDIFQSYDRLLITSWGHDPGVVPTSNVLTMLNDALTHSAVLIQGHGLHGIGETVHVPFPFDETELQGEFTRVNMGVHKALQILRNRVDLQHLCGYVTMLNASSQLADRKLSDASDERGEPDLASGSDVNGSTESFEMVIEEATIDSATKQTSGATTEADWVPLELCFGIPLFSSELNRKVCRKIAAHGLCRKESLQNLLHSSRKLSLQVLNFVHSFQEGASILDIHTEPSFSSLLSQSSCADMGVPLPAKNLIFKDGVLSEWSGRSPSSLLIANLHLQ
UniProt P11717, residues 41-2491: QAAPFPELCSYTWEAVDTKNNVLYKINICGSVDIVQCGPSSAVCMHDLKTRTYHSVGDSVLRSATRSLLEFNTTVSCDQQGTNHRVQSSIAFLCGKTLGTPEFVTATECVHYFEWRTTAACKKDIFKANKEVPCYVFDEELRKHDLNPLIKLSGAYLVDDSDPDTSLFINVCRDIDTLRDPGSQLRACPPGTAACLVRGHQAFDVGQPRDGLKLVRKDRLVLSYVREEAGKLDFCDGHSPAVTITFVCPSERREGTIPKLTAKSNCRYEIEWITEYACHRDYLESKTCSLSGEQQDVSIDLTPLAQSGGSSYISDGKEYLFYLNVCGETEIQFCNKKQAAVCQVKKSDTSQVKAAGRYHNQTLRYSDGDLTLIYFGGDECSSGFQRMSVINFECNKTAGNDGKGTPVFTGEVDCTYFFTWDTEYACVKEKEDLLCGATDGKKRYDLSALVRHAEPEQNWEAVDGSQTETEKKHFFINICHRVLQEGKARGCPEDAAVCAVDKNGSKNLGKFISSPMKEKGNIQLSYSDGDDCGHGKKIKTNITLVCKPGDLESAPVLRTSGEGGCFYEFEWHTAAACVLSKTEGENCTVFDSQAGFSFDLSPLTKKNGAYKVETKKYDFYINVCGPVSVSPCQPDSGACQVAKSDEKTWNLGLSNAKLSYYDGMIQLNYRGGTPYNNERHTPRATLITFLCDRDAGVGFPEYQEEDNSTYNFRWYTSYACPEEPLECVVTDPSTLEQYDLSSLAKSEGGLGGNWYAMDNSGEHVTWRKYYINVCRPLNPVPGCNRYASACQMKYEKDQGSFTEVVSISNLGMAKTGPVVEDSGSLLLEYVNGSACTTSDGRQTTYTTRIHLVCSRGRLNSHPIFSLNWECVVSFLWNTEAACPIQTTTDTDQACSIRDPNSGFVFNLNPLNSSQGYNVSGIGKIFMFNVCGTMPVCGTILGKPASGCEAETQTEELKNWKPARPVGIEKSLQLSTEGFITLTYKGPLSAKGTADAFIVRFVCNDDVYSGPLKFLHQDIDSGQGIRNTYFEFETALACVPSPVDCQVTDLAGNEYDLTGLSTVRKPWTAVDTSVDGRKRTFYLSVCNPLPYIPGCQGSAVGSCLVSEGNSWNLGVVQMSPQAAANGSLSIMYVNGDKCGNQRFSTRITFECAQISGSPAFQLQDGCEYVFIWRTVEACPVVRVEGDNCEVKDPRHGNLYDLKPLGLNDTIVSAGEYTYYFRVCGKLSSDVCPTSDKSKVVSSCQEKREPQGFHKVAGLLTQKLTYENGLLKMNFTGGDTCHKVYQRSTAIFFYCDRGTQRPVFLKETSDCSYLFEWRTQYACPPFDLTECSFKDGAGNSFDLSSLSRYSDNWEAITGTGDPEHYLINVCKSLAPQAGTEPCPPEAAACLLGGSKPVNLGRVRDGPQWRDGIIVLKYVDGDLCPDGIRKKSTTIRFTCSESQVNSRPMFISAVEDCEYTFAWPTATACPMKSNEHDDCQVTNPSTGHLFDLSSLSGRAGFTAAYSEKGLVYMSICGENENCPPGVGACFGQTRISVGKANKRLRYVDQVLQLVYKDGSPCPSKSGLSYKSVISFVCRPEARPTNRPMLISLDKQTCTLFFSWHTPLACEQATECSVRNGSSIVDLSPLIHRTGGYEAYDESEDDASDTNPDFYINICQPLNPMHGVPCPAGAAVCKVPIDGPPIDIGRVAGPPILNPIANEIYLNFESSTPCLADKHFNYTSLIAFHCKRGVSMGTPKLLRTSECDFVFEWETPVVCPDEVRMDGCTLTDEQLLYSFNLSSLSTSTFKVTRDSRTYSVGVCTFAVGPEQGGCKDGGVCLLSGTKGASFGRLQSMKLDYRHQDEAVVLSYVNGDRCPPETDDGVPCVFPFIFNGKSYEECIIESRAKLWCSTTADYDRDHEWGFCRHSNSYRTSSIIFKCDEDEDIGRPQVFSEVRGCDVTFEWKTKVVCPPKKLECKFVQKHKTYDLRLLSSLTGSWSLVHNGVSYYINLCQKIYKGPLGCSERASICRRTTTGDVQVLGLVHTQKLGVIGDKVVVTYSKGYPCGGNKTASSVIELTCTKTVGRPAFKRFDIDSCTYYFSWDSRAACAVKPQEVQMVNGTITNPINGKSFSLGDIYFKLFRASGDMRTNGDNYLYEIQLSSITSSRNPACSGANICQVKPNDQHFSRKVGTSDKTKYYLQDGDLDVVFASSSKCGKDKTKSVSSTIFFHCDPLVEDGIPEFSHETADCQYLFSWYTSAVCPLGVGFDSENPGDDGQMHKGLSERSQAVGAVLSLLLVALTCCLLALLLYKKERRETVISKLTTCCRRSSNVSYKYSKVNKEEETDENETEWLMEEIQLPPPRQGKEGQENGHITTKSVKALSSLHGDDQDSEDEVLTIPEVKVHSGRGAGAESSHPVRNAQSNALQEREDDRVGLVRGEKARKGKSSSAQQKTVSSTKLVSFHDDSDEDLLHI
UniProt P20340: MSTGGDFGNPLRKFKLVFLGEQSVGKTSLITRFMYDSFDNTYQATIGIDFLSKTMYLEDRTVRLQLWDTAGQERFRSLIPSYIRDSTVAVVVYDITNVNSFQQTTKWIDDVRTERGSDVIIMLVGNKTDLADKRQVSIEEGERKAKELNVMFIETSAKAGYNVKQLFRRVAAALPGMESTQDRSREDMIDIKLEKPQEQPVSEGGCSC

Legend:
[1] = molecular target: T1, C17orf75 (human (endogenous in HeLa and RPE)) (UniProt Q9HAS0); experiment: affinity purification with mass spectrometry; native immunoprecipitation with anti-C17orf75 from lysates of wild-type, WDR11-disrupted and FAM91A1-disrupted HeLa cells; PBS with 1% Triton, 4 °C; mass spectrometry
T1 sequence: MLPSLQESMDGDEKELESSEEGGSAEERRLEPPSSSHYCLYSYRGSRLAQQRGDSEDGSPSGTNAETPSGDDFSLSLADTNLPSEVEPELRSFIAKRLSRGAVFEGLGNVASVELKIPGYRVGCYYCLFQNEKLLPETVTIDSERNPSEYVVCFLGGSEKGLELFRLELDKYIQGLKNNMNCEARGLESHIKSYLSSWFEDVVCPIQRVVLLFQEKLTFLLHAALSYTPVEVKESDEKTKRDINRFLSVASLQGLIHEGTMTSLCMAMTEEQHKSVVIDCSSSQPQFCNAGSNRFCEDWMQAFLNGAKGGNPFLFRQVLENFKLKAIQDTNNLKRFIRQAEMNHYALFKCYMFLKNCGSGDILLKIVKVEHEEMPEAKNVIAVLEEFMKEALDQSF

[2] = molecular target: T2, WDR11 (human (endogenous in HeLa and RPE)) (UniProt Q9BZH6); experiment: affinity purification with mass spectrometry; native immunoprecipitation with anti-WDR11 from extracts of wild-type HeLa cells, WDR11-knockout cells as control; PBS with 1% Triton, 4 °C; protein A Sepharose; co-precipitating proteins identified by mass spectrometry
T2 sequence: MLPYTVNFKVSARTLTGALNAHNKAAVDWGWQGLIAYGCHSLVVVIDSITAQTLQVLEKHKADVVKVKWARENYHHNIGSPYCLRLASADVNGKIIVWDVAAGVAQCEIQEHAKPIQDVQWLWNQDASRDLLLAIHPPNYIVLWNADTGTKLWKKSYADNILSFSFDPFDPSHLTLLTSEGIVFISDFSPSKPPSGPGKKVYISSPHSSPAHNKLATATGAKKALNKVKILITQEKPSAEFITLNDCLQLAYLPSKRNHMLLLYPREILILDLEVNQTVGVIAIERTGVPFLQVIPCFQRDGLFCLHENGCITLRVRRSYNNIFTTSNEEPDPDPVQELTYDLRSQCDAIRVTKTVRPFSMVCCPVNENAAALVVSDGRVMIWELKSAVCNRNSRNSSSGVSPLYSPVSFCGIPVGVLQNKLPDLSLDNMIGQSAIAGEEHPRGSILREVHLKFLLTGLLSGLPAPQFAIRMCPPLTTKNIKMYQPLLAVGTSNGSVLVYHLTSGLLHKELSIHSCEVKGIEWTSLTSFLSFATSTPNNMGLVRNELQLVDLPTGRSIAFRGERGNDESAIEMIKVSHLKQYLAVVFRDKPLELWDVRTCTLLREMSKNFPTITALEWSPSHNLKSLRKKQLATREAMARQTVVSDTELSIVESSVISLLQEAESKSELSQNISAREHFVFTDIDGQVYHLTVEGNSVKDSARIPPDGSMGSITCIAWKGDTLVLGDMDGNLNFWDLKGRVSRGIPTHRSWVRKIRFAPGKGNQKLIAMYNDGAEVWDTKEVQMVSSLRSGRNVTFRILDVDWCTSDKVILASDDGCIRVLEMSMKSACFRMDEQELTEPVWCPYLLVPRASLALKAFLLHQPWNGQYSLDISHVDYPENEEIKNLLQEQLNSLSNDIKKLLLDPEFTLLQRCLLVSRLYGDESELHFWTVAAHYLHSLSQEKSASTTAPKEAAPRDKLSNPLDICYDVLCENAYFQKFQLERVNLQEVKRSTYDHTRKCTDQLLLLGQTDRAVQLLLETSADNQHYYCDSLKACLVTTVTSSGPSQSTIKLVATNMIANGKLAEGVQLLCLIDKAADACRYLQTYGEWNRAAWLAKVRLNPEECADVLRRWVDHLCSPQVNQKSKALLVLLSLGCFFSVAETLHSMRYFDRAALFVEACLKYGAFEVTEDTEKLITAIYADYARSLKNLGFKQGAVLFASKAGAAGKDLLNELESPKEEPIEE

[3] = molecular target: T3, BirA*-tagged C17orf75 (human) (UniProt Q9HAS0); experiment: proximity labelling; BioID: RPE cells stably expressing BirA*-tagged WDR11, FAM91A1 or C17orf75, 50 µM biotin for 24 h; lysis in RIPA buffer; biotinylated proteins captured on streptavidin agarose; label-free mass spectrometry against BirA* only and GFP-BirA* controls, four replicates
T3 sequence: T1 sequence

[4] = molecular target: T4, BirA*-tagged WDR11 (human) (UniProt Q9BZH6); experiment: as above
T4 sequence: T2 sequence

[5] = molecular target: BirA*-tagged FAM91A1 (human) (UniProt Q658Y4); experiment: as above

Molecule: cation-independent mannose 6-phosphate receptor (from UniProt P11717 41-2491)
binding [3]: binds
binding [5]: binds
binding [4]: binds

B2: WDR11 (protein, UniProt Q9BZH6 1-1224)
chain: T2 sequence
binding [1]: binds
binding [3]: binds
binding [5]: binds

Next, values leading:

binding [1]: binds
binding [2]: binds
binding [3]: binds
binding [4]: binds
Molecule: FAM91A1 (from UniProt Q658Y4 1-838)

binding [4]: binds
Molecule: Rab6A (from UniProt P20340 1-208)

binding [2]: binds
binding [5]: binds
binding [4]: binds
B1: C17orf75 (protein, UniProt Q9HAS0 1-396)
chain: T1 sequence
